{"source": "paper PMC9181523", "target": "T1, SrsR (YgfI) (Escherichia coli K-12 W3110 type-A) (UniProt P52044)", "T1 sequence (looked up, limits assumed)": "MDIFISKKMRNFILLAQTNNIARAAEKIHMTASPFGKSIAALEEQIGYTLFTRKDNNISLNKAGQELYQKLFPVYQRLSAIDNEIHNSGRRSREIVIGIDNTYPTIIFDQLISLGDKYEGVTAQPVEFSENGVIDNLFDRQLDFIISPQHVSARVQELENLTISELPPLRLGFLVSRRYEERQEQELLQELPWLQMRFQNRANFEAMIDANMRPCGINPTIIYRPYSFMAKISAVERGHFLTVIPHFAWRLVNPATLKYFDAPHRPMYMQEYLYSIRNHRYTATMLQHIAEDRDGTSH", "test": "EMSA", "conditions": "several complexes; EMSA: gel shift buffer (composition not given), 0.1 pmol probe, 0-2 pmol SrsR, 37 C 30 min; recombinant protein; protein details: C-terminal His; probe letters rebuilt from the primers and the genome", "note": "The exact form of at least one protein or probe is not confirmed. Tags and fusion partners may be left off the protein sequences shown."}
{"sequence": "ATCATCCTGCGTTCCCCACTGGCGCTTTTTAGGGCTGAATACAACCGCATCAGGATGGCGAGTTAAAAAATCCTGTTCATCCGTCTGCGTGTCCGGTTGCGAAGCGTCCGGACGAGAAGGTTTTTTATCTGACGGATCATGTTTTGATTTTACTGACGGATCCCCGCCAGATTCTGACGGGTGAAAACCCGATTTTTTGCCAGATTTCGACGCATCAAATTTTGACGGGTCAGATTTTGATGCGTCAGATTTTGACGGGTCAGAGTCTGACAGTTGAGAAAATGCCGCTGCCTGAAGCTTCGCAACGTTAAGCTGATAAACATTCGACGCATTGCGGTT (double strand) [yfdO/yfdP gel shift probe]", "values": [{"measurement": "binding result", "result": "binds"}]}
